# Laboratory results published in patent US7553667B2, “Regulation of gene expression using chromatin remodelling factors” (Her Majesty the Queen in right of Canada as represented by …, priority 2002, dated 2009).
# Some of these results come from one statement about several compounds together.
# T1: HDA19 (Arabidopsis thaliana, UniProt O22446)
# T1 construct: expressed in transfected cells; host or cells: Saccharomyces cerevisiae MaV203
# T1 sequence (O22446 1-501): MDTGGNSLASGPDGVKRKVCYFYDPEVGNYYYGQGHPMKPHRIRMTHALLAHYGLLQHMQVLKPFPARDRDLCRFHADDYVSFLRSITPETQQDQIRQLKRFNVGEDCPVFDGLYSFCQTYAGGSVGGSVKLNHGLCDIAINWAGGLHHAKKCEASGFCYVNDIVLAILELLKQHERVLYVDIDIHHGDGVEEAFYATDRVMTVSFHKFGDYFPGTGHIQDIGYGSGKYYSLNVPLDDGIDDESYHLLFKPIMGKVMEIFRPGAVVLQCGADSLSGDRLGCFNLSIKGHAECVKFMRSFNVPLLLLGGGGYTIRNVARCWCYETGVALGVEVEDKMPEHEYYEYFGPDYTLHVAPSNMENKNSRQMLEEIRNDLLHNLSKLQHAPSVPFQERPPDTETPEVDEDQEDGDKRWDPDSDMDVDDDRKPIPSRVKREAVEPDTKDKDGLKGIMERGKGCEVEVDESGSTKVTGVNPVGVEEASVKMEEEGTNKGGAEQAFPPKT
# B1: ΔbnKCP1^1-160: C-terminal truncated mutant of bnKCP1, residues 1-160, lacking the KID domain (protein)
# chain: MAGGGPTFSIELSAYGSDLPTDKASGDIPNEEGSGLSRVGSGIWSGRTVDYSSESSSSIGTPGDSEEEDEESEEDNDEEELGLASLRSLEDSLPSKGLSSHYKGKSKSFGNLGEIGSVKEVPKQENPLNKKRRLQIYNKLARKSFYSWQNPKSMPLLPVH
# B2: ΔbnKCP1^1-80: C-terminal truncated mutant of bnKCP1, residues 1-80, lacking the KID domain (protein)
# chain: MAGGGPTFSIELSAYGSDLPTDKASGDIPNEEGSGLSRVGSGIWSGRTVDYSSESSSSIGTPGDSEEEDEESEEDNDEEE
# B3: pPC86-BnSCL1^218-438: N-terminal deletion mutant of BnSCL1, amino acids 218-434, lacking the VHIID motif (protein)
# chain: GQYASLMREIAEKSANGGFLRVTAVVAEDCAVETRLVKENLTQFAAEMKIRFQIEFVLMKTFEILSFKAIRFVDGERTVVLISPAIFRRVIGIAEFVNNLGRVSPNVVVFVDSEGCTETAGSGSFRREFVSAFEFYTMVLESLDAAAPPGDLVKKIVETFLLRPKISAAVETAANRRSAGQMTWREMLCAAGMRPVQLSQFADFQAECLLEKAQVRG
# modifications: left off: large carriers
# notes: N-terminal deletion mutant of BnSCL1, amino acids 218-434, lacking the VHIID motif
# Columns and labels:
# HDA19 [1] = biological target: T1, HDA19; experiment: In vivo protein interaction assay (yeast two-hybrid, lacZ/CPRG) of bnKCP1 with HDA19; assay type: cell-based; conditions: MaV203 yeast co-transformed with pDBLeu-HDA19
# HDA19 [2] = biological target: T1, HDA19; experiment: In vivo protein interaction assay (yeast two-hybrid, lacZ/CPRG) of BnSCL1 with HDA19; assay type: cell-based; conditions: mutants lacking VHIID motif
Molecule,reduction of β-galactosidase activity as compared to the full-length bnKCP1 (HDA19 [1]),further reduction in β-galactosidase activity as compared to the other mutants (HDA19 [2])
B1,at least 50%,–
B2,at least 50%,–
B3,–,at least 50%
